PubChem BioAssay AID1347076 (National Center for Advancing Translational Sciences (NCATS), 2019)
Hit rate of the full screen: of about 400,000 compounds, about 13,000 (3.2%) were called active. The inconclusive results got no clear call from the source; some entries with a clear call stand among them for comparison. Calls follow the shape of the dose curve; as a rule, active = well fitted cell-killing curve with a large enough effect; inconclusive = small, poorly fitted or top-dose-only effect, or effect the other way; inactive = flat fitted curve, though single readings scatter. Where the call is inconclusive, the potency comes from a doubtful curve fit.
% is scaled to controls: 0 for no effect and ±100 for the full control effect; potency is read from the fitted curve at half-maximal effect.

Experiment: qHTS assay for MDR1-selective chemotherapeutics: Primary screen using the drug-selected MDR subline cells KB-V1; also: nearly all actives have a fitted effect of over 60% in size
Conditions: KB-V1 MDR cells viability, CellTiter-Glo, 72 h; activity change, negative = cytotoxicity: at 46.1 µM (top of the series)
Outline: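 KB-V1, DMEM (no phenol red) + 10% FBS; cpd pin-transferred, titration series; 72 h, 37 degrees C; CellTiter-Glo, luminescence. Data normalized, curve-fit.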
For `COc1ccccc1NC(=O)N(C)C[C@@H]1OCc2cnnn2CCCC(=O)N([C@@H](C)CO)C[C@H]1C`, the “activity change, negative = cytotoxicity” value was inactive: 13.3%. For `COc1ccc(C(CNC(=O)Cc2ccccc2F)N2CCCCC2)cc1` (centres undefined), the Potency was inconclusive: 9.2 µM [cytotoxic, partial curve]. With `O=C(O)C1CC=CCC1C(=O)Nc1ccc(N2CCN(Cc3ccccc3)CC2)cc1` (centres undefined) the Potency was inconclusive: 32.6 µM [cytotoxic, single point]. In the case of `COc1ccccc1CC(=O)Nc1nc(-c2ccc(F)c(F)c2)cs1`, the Potency is reported as inconclusive: 1.46 µM [cytotoxic, full curve, poor fit]. In the case of `CCOc1ccccc1-c1nc(C(N)=O)c2c(n1)n(-c1ccc3c(c1)OCO3)c(=O)n2C`, the “activity change, negative = cytotoxicity” value is reported as inactive: -9.72%. For `O=C(NNC(=O)c1ccc(-c2ccc([N+](=O)[O-])cc2)o1)c1ccncc1`, the Potency was inconclusive: 29.1 µM [rising, single point]. In the case of `Cc1cc(C)cc(OCCn2ccnc2)c1`, the Potency is reported as inconclusive: 18.4 µM [rising, partial curve, poor fit]. With `CC(C)OCCCNC(=O)C(NC(=O)c1ccc(Cl)cc1)C(C)C` (centres undefined) the Potency was inconclusive: 8.2 µM [cytotoxic, partial curve]. For `Cc1ccc(-c2cc3nc(C)cc(NCc4ccco4)n3n2)cc1`, the Potency was active: 14.6 µM. In the case of `Cc1cc2nc(-c3ccc(SCc4ccccc4C#N)nc3)[nH]c2cc1C`, the Potency is reported as active: 20.6 µM. In the case of `COc1cccc(NC(=O)CCN2CCN(CCO)CC2)c1`, the “activity change, negative = cytotoxicity” value is reported as inactive: 24.8%. In the case of `Cc1ccc(C)c(S(=O)(=O)N2CCCOC2CNC(=O)C(=O)NCc2cccs2)c1` (centres undefined), the Potency is reported as inconclusive: 16.4 µM [cytotoxic, single point]. For `Brc1cccc(/C=N\n2cnnc2)c1`, the Potency was inconclusive: 29.1 µM [cytotoxic, single point]. In the case of `CCN(CC)C(=O)C1CCCN(Cc2cccc(Oc3ccccc3)c2)C1` (centres undefined), the Potency is reported as inconclusive: 5.8 µM [cytotoxic, partial curve, poor fit]. With `COc1cccc(C(=O)NNC(=O)CCC(=O)O)c1` the Potency was inconclusive: 3.66 µM [cytotoxic, partial curve, poor fit]. With `O=C(COC(=O)c1ccccn1)NC(=O)c1ccccc1` the Potency was inconclusive: 18.4 µM [rising, single point]. For `N/C(=N\OC(=O)c1cccc(Cn2cc(C(F)(F)F)ccc2=O)c1)c1ccc(Cl)cc1`, the Potency was inconclusive: 23.1 µM [cytotoxic, single point]. With `CC(C)NC(=S)N/N=C/c1ccc(C(C)(C)C)cc1` the Potency was inconclusive: 20.6 µM [cytotoxic, single point]. For `Cc1ccccc1OCC(=O)N/N=C/c1ccc2c(c1)OCCO2`, the Potency was inconclusive: 20.6 µM [cytotoxic, single point]. In the case of `O=C(Nc1ccccc1)Nc1cc(OCC(F)(F)F)cc(OCC(F)(F)F)c1`, the Potency is reported as active: 16.4 µM. With `Cc1ccc(OCCC(=O)NNC(=O)c2nn(C)c(=O)c3ccccc23)cc1` the Potency was inconclusive: 7.31 µM [cytotoxic, partial curve]. In the case of `Cn1cccc1/C=N/NC(=O)C(O)c1ccccc1` (centres undefined), the Potency is reported as inconclusive: 18.4 µM [rising, single point]. In the case of `O=S(=O)(c1ccccc1)N1CN(c2ccc(F)cc2F)c2nc3ccccc3nc21`, the Potency is reported as inconclusive: 32.6 µM [cytotoxic, single point]. With `O=C(NCc1ccccc1)c1cc(=O)nc2sc(-c3ccccc3)nn12` the Potency was active: 13 µM. With `COc1cc(-c2nnn(Cc3ccccc3C)n2)cc(OC)c1OC` the “activity change, negative = cytotoxicity” value was inactive: -10.7%. For `O=Nc1[nH]c(=O)c(/C=C(\O)c2ccccc2)nc1NO`, the Potency was inconclusive: 16.4 µM [cytotoxic, single point]. With `Cc1ccc(S(=O)(=O)N2CCN(C(=O)c3ccccc3OCc3c(C)noc3C)CC2)cc1` the Potency was inconclusive: 29.1 µM [cytotoxic, single point]. For `O=C(COc1ccc(S(=O)(=O)NC2CCCCC2)cc1Cl)Nc1ccc2c(c1)OCO2`, the Potency was active: 10.3 µM. In the case of `O=C(N/N=C/c1ccc(O)cc1O)c1ccc(CN2C(=O)c3cccc4cccc2c34)cc1`, the Potency is reported as inconclusive: 32.6 µM [cytotoxic, single point]. In the case of `CCC1(CC)NC(=O)N(CC(=O)OCC(=O)Nc2ccc(OC(F)(F)F)cc2)C1=O`, the Potency is reported as inconclusive: 29.1 µM [rising, single point]. For `O=C(c1ccccn1)N1CCN(S(=O)(=O)c2cccc(Br)c2)CC1`, the Potency was inconclusive: 18.4 µM [cytotoxic, partial curve]. In the case of `COc1ccc(C)cc1NC(=O)Cc1c(C(=O)O)c(C)cn1C`, the “activity change, negative = cytotoxicity” value is reported as inactive: 10.4%. For `Cc1ccnc(N=O)c1`, the “activity change, negative = cytotoxicity” value was inactive: -0.0938%. For `CC1CCCN(CCC(=O)Nc2ccc(Br)cc2)C1` (centres undefined), the Potency was inconclusive: 29.1 µM [cytotoxic, single point]. With `O=C(Nc1ccccc1)OCc1cnc(Cl)s1` the activity change, negative = cytotoxicity was inconclusive: 0%. With `Cc1cccc(C2c3[nH]c4ccccc4c3CCN2C(=O)c2cc(-c3cccn3C)n[nH]2)n1` (centres undefined) the Potency was inconclusive: 29.1 µM [cytotoxic, single point]. With `COc1cc(OC)cc(C(=O)NC(C(=O)Nc2ccc3c(c2)OCCO3)C(C)C)c1` (centres undefined) the “activity change, negative = cytotoxicity” value was inactive: 12.6%. For `CN1CCN(S(=O)(=O)c2cccc(C(=O)Nc3nc(-c4ccccc4)cs3)c2)CC1`, the Potency was active: 3.26 µM. In the case of `CCOc1ccc(NC(=O)CN(C)S(=O)(=O)c2ccc3[nH]c4c(c3c2)CCCC4)cc1`, the Potency is reported as inconclusive: 18.4 µM [cytotoxic, partial curve, poor fit]. In the case of `COc1cc(NC(=S)NCCC(c2ccccc2)c2ccccc2)cc(OC)c1`, the “activity change, negative = cytotoxicity” value is reported as inactive: -19.4%. For `Cc1c(C(=O)Nc2ccc(-c3nnc4n3CCCCC4)cc2)oc2ccc(Br)cc12`, the Potency was active: 8.2 µM. In the case of `CCOC(=O)[C@]12CCCC=C1N(Cc1ccco1)C(=O)[C@H](CC(=O)NCc1cccc(C(F)(F)F)c1)C2`, the Potency is reported as inconclusive: 20.6 µM [cytotoxic, partial curve, poor fit]. For `O=C(c1cccc(F)c1)N1CCN(c2cc(N3CCCCC3)c(F)cc2[N+](=O)[O-])CC1`, the Potency was active: 18.4 µM. With `CC(=O)Nc1cccc(-c2ccnc3c2CC(C(=O)NCc2ccc(F)c(F)c2)O3)c1` (centres undefined) the Potency was inconclusive: 20.6 µM [cytotoxic, single point].
